From publication PMC7819943, “Rice protein-binding microarrays: a tool to detect cis-acting elements near promoter regions in rice”
The list shows a part of the results.

By UniProt entry, the sequences of proteins in these tests, tags left out.
UniProt Q0JBA9, entry or part of it: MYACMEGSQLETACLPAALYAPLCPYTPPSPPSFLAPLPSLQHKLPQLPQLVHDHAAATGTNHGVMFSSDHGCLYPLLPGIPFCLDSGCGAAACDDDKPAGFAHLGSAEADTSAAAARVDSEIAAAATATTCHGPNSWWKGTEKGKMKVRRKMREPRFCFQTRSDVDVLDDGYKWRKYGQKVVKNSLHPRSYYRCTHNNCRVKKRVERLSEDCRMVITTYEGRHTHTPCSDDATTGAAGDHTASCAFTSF

What follows are sequences tested against OsWRKY34 (Oryza sativa, UniProt Q0JBA9 1-250) (assay: protein-binding microarray (RPBM); PBS, 2% BSA, 51.3 ng/ul salmon testes DNA, 50 uM zinc acetate, 200 nM TF, 25 C, 1 h; high values mean tight binding). Conditions: protein: recombinant; tags: N-terminal polyhistidine and DsRed monomer fusion (pET32a); label: CyDye5-dUTP incorporated in the synthesized complementary strand; 3' TTTTT single-stranded linker to array surface; dsDNA, one strand shown.
Procedure, shortened: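 The binding signal is fluorescence intensity per array feature (arbitrary units). Readings came from an Axon 4000B scanner after a washed, 2% BSA-blocked, double-stranded custom Agilent array had been incubated for 1 h at 25 °C with 200 nM protein and 50 µM zinc acetate. The protein was a Ni–NTA-purified transcription factor fused N-terminally to polyhistidine and DsRed, expressed in E. coli BL21-CodonPlus.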

Sequence	binding signal
CAAATTGCTCAGCTGATCCGTGCCTATTTTTTTATTATTTCGGAGTCACCTAGTGCAG	8120 fluorescence intensity (a.u.)
AATTGTTGGATCACGGTTTTACATGATGGGTTACAAGACCCGGAGTCACCTAGTGCAG	8060 fluorescence intensity (a.u.)
GTGGATGGCCATCGGGGTAGAAGAGATGTGATGGGTTGACCGGAGTCACCTAGTGCAG	9160 fluorescence intensity (a.u.)
GCCGATCCCCTAGCTGACGTGGCAGCTACCTCAGCGCCAACGGAGTCACCTAGTGCAG	8470 fluorescence intensity (a.u.)
TCCAACGCCGCTGTCATTTCCAATCTCCCACCCATTTACTCGGAGTCACCTAGTGCAG	9400 fluorescence intensity (a.u.)
TTTAACTGTCATCCTTGTCAGCCTCACCGATTTGCTGTTGCGGAGTCACCTAGTGCAG	10000 fluorescence intensity (a.u.)
GTGGTTAGTGGTCATTGGTCATCCTTTCTCTTCTCAGATCCGGAGTCACCTAGTGCAG	8260 fluorescence intensity (a.u.)
GTCCGGGGTGGTGGTGGCCGCGACCGCGAGAGCGAATCAACGGAGTCACCTAGTGCAG	12900 fluorescence intensity (a.u.)
ACCCACCACTCCTTATCCACCTAGTCCTTATCCTCTTGTTCGGAGTCACCTAGTGCAG	9130 fluorescence intensity (a.u.)
TCTCCTCTCCCAATCGCGCGCATCCGACCTCCTTCTTTCCCGGAGTCACCTAGTGCAG	8350 fluorescence intensity (a.u.)
CTCCAGAAGATAACCAGCGCGCGCTGATCTCGTCGTCTTCCGGAGTCACCTAGTGCAG	8100 fluorescence intensity (a.u.)
CTGTCTATGTTTTTTATGTTTAGCAGCTGCGCTGCTGCAGCGGAGTCACCTAGTGCAG	10100 fluorescence intensity (a.u.)
ACTTTATTATCTAAAGTACTTTAAGCGCAACTTTTCGTTTCGGAGTCACCTAGTGCAG	11600 fluorescence intensity (a.u.)
TTGAGTTTTTGCTCGTAGTGTTTGACCACTCGTTTTATTACGGAGTCACCTAGTGCAG	9230 fluorescence intensity (a.u.)
AAAGCATTTCTCCTGCCTTCTCGTGTCTAACTGTCTATATCGGAGTCACCTAGTGCAG	8940 fluorescence intensity (a.u.)
CCACCCACCTCACCCACCACCTCTCTCTCTACTCCTCCTCCGGAGTCACCTAGTGCAG	8720 fluorescence intensity (a.u.)
GCCAAACAAACCATACTGCTGCTACAACTAGCACTCCTAACGGAGTCACCTAGTGCAG	8670 fluorescence intensity (a.u.)
ATGCTTTATCCGTTCTATATTATATTTTGACTTTTTAAGTCGGAGTCACCTAGTGCAG	8270 fluorescence intensity (a.u.)
TACTTTGTATGTGGCTTGTTTTTGTTTATGTTCAATTATCCGGAGTCACCTAGTGCAG	8370 fluorescence intensity (a.u.)
GTACGAAAAACAGGCACAGTACACTATCTTGTCCTAACTGCGGAGTCACCTAGTGCAG	9790 fluorescence intensity (a.u.)
TGTGGTGGTGGTTGCTTCGAGTTTGCACAATATTTTTGGCCGGAGTCACCTAGTGCAG	10000 fluorescence intensity (a.u.)

A portion of the results above, for reference:
Sequence	binding signal
AAAGCATTTCTCCTGCCTTCTCGTGTCTAACTGTCTATATCGGAGTCACCTAGTGCAG	8940 fluorescence intensity (a.u.)
CCACCCACCTCACCCACCACCTCTCTCTCTACTCCTCCTCCGGAGTCACCTAGTGCAG	8720 fluorescence intensity (a.u.)
GCCAAACAAACCATACTGCTGCTACAACTAGCACTCCTAACGGAGTCACCTAGTGCAG	8670 fluorescence intensity (a.u.)
ATGCTTTATCCGTTCTATATTATATTTTGACTTTTTAAGTCGGAGTCACCTAGTGCAG	8270 fluorescence intensity (a.u.)

Going on with the list.

Sequence	binding signal
CTTCCCTAAATGTTTGACGCCGTTGACTTTTCTAAACATGCGGAGTCACCTAGTGCAG	18600 fluorescence intensity (a.u.)
TTGCTTCATTTATCAAGTTGGGTGCTTCTACATCTTCCCCCGGAGTCACCTAGTGCAG	10400 fluorescence intensity (a.u.)
ACGGATAGATACATCTTTGCCACTGCAGCTGCACTGCACACGGAGTCACCTAGTGCAG	8840 fluorescence intensity (a.u.)
ATGTTTGACCGTTCGTCTTATTCGAAAACTTTTATGAAATCGGAGTCACCTAGTGCAG	9600 fluorescence intensity (a.u.)
ACTAACTCCATTTTTTTTTGTTACTGTCTGCTAGCCGAAACGGAGTCACCTAGTGCAG	8860 fluorescence intensity (a.u.)
GTTGAAGAGGGAGATGGCGACGGCGGGGCTGGCACGCGCGCGGAGTCACCTAGTGCAG	8550 fluorescence intensity (a.u.)
GGTCTCATCCTGATCGATCTCTGCGAGTTTATCCAATATCCGGAGTCACCTAGTGCAG	9180 fluorescence intensity (a.u.)
TGTGCTGCTCGGCGGCGCCTTCGTGACGGCCGCGCGGCCGCGGAGTCACCTAGTGCAG	8320 fluorescence intensity (a.u.)
ACAAGATTTCCTTTTTTACGCTCAATCTCCTTCTCCCAAACGGAGTCACCTAGTGCAG	8260 fluorescence intensity (a.u.)
TTGTGTGTTCTTCCATCTGGCAATGGCATCTGCAGCAGCACGGAGTCACCTAGTGCAG	9530 fluorescence intensity (a.u.)
GTCTTCTGTTGCTTCTAGTGGCGCCCGCTGTGTCCGTCATCGGAGTCACCTAGTGCAG	9610 fluorescence intensity (a.u.)
ACCAATCACCACCGCCCAACGCGCACACGCCCACGCGCTCCGGAGTCACCTAGTGCAG	10500 fluorescence intensity (a.u.)
CCTAATTTTTTCCTCAGGAAAGTTACTGACATTGATTCTTCGGAGTCACCTAGTGCAG	8650 fluorescence intensity (a.u.)
ACATCAAAATTTTTTTACACACATAAAGTTCCAACTTTTTCGGAGTCACCTAGTGCAG	8260 fluorescence intensity (a.u.)
CTGGGTCATCGTCCCATGCGACGTTGACATAGTATTAGAACGGAGTCACCTAGTGCAG	10400 fluorescence intensity (a.u.)
GACGTTTTTGGGGTGGGCCGGCCCGTCCTCCGTTGGGTCGCGGAGTCACCTAGTGCAG	9310 fluorescence intensity (a.u.)
CATTTTTGCAAAGTTTGGTTGGGGTGGAAGATGTCCGGCCCGGAGTCACCTAGTGCAG	9670 fluorescence intensity (a.u.)
TGCATTATATTTCAAGATTCCTATGTGTTCAATTCATATACGGAGTCACCTAGTGCAG	9250 fluorescence intensity (a.u.)
TACAACAACCCATTTTCCAAGTAGTACAAGTCTCCATGTCCGGAGTCACCTAGTGCAG	8040 fluorescence intensity (a.u.)
TCTCATATCCCGATCATGGTCTCTAGCAATTAAATTCCGTCGGAGTCACCTAGTGCAG	8900 fluorescence intensity (a.u.)
TTCTCCCACCGCATCCTCTCTCCCCTTGAGTATTTACTTTCGGAGTCACCTAGTGCAG	8370 fluorescence intensity (a.u.)

Sequence	binding signal
GGGGATTAAAACAATGTGGGTCGTTAGATCTTTTCAGTCTCGGAGTCACCTAGTGCAG	8120 fluorescence intensity (a.u.)
ATTTTCTTCCCAACCAATCACAACTCTCCACCATTCACTTCGGAGTCACCTAGTGCAG	8250 fluorescence intensity (a.u.)
CGTGAATCCTCGCATTATAGTTTATGGTCACTGTTATATACGGAGTCACCTAGTGCAG	9300 fluorescence intensity (a.u.)
CTCGATCCAGCGCTGTCACAGTGTCACGCCAAGCAAAACACGGAGTCACCTAGTGCAG	8790 fluorescence intensity (a.u.)
TCGTACTAGTACTACCGTCTACAGCGTCCCGCTGATGCTCCGGAGTCACCTAGTGCAG	8990 fluorescence intensity (a.u.)
GTTCTCTCGCCGTACACCGTCGTCGCCGACCGGCTCCCTCCGGAGTCACCTAGTGCAG	10100 fluorescence intensity (a.u.)
CTCGTCTCACCCTGAAGCCGTATTCTGTTTCTTTCTTTTCCGGAGTCACCTAGTGCAG	9060 fluorescence intensity (a.u.)
CTATTCTCTCTCATTTTATCCATATATTTTATTATTTTTTCGGAGTCACCTAGTGCAG	8900 fluorescence intensity (a.u.)
TTCACAAATTGGCCATCTTATTCTTTTCGTAGCGTGCAAACGGAGTCACCTAGTGCAG	9010 fluorescence intensity (a.u.)
CCTCCTCTCTATCTCTCTCTCTCTCTCTCTTGGTTTTCCGCGGAGTCACCTAGTGCAG	10500 fluorescence intensity (a.u.)
CCGCCGCCGCCGCCGCCGCCGCAGCCGAGCGACCGTCCGACGGAGTCACCTAGTGCAG	8120 fluorescence intensity (a.u.)
CCACTAATTTTCGTCATTTTTTATAATATTTTCACAAATTCGGAGTCACCTAGTGCAG	10000 fluorescence intensity (a.u.)
CTCTTATAGTCTCTATCTCCTGTATACGCTTATATATAGACGGAGTCACCTAGTGCAG	8510 fluorescence intensity (a.u.)
ATAAAGTGGGGTTGGTTTGGCTGCTTTCTCGATTAGACCGCGGAGTCACCTAGTGCAG	9620 fluorescence intensity (a.u.)
GGGTTGGGTCTTCTTTGAACTAATTCATGTGGAAATCCTACGGAGTCACCTAGTGCAG	15700 fluorescence intensity (a.u.)
TCTGATAATATCTTGTGGTTTCTTTCTTCTTCCCTGGATCCGGAGTCACCTAGTGCAG	8320 fluorescence intensity (a.u.)
TTTGGGTTGTGCTTAGGTTTCCTTCTCGGGCTTTGTTGTACGGAGTCACCTAGTGCAG	18700 fluorescence intensity (a.u.)
GTTATTATTTTTCCTATCTGCATTTAAGCAATTCTATTATCGGAGTCACCTAGTGCAG	9510 fluorescence intensity (a.u.)
CCTCTGCTTCGTTTCCTTCTCCAGCAAGCACCCGACCACACGGAGTCACCTAGTGCAG	9190 fluorescence intensity (a.u.)
GCTATAGATCGATCTTCTAGTTGACCACTTCAGAAACATCCGGAGTCACCTAGTGCAG	8640 fluorescence intensity (a.u.)
TGCATTTTTTTTCTCTAAGTATTACTATACACCGGTCATCCGGAGTCACCTAGTGCAG	8080 fluorescence intensity (a.u.)

Quoted from the listing:
In binding signal, CCACTAATTTTCGTCATTTTTTATAATATTTTCACAAATTCGGAGTCACCTAGTGCAG has 10000 fluorescence intensity (a.u.)
In binding signal, GTTATTATTTTTCCTATCTGCATTTAAGCAATTCTATTATCGGAGTCACCTAGTGCAG has 9510 fluorescence intensity (a.u.)

Following part:

Sequence	binding signal
ATGAACTTCTTCTGAAATTTTGCTGGTATTTCCTTTTGAACGGAGTCACCTAGTGCAG	8670 fluorescence intensity (a.u.)
ATCGGGTTGGTCAGTTGTTTGCCATGGTGATTACGAAATTCGGAGTCACCTAGTGCAG	14200 fluorescence intensity (a.u.)
TTTGGCCCGCACACACCAACCTGTCCTGTCCTGCCGTCCTCGGAGTCACCTAGTGCAG	9500 fluorescence intensity (a.u.)
TTTGCTTAGTGGTGTGTTTGCTGGGCTATAAAAGTCATATCGGAGTCACCTAGTGCAG	10600 fluorescence intensity (a.u.)
CATCAACTTCTTCCCAATCAGCCGCTTCTACTACTACTAACGGAGTCACCTAGTGCAG	8300 fluorescence intensity (a.u.)
AGGCGTGTATGTAGTTGAACTGTTTTGCTTTTGCCTGCCTCGGAGTCACCTAGTGCAG	11800 fluorescence intensity (a.u.)
TTCCACCTCGCGCGCGACCCACTAGCTACCAGCCTTCTACCGGAGTCACCTAGTGCAG	13600 fluorescence intensity (a.u.)
CTCGCCCTCCGCCGCGCGCTCCCGTACTACAATGACGCCGCGGAGTCACCTAGTGCAG	8610 fluorescence intensity (a.u.)
AGTTTTGTTTGTGATGAGTTTGAGTTGTGACTGGGCTTCTCGGAGTCACCTAGTGCAG	9290 fluorescence intensity (a.u.)
TGTGCTAAAAAAGTCAACGGTGTCAAATATTTCGAAACGGCGGAGTCACCTAGTGCAG	14700 fluorescence intensity (a.u.)
CTTCATTACCTTGCTTTTGTAGTTTCTCCTGTCTACATTCCGGAGTCACCTAGTGCAG	10700 fluorescence intensity (a.u.)
CTCAGGCATGTTCCTCGTACTTCTACATTATTATTTATTTCGGAGTCACCTAGTGCAG	8850 fluorescence intensity (a.u.)
GGCTCTAACTCTGGAACACACGCACATCTCTTTTTCGGGACGGAGTCACCTAGTGCAG	9700 fluorescence intensity (a.u.)
AGATTCGTGTAGACCCATTGTCTGGCAGCGGCGATCGTCCCGGAGTCACCTAGTGCAG	8040 fluorescence intensity (a.u.)
CTCTGTATCTGTGACCATCTCGCTTCGTCATCTCGTCGTCCGGAGTCACCTAGTGCAG	10500 fluorescence intensity (a.u.)
CCCAGCTTCTCCAGGTTCTAGCTTCTTAGTTCATTTTTCACGGAGTCACCTAGTGCAG	9670 fluorescence intensity (a.u.)
GGATGTGGTTGGCTGGTTTTCATTCGCACTGTATATATATCGGAGTCACCTAGTGCAG	11600 fluorescence intensity (a.u.)
CGCCACTGCCCTTTCCCCATCGCGCCTGCTGGACCCGACGCGGAGTCACCTAGTGCAG	8090 fluorescence intensity (a.u.)
TGTATCAGTATCAGAATTTACAATCCTTCGCGTGAAATTTCGGAGTCACCTAGTGCAG	8880 fluorescence intensity (a.u.)
ATGCACAGGTGAGTAGATTTGGTTCCCCAACCTCCGCTTCCGGAGTCACCTAGTGCAG	10100 fluorescence intensity (a.u.)
AATTGTCAGCGCCGTGTTGTTTGTAAGTACTCAAAATTTCCGGAGTCACCTAGTGCAG	11200 fluorescence intensity (a.u.)
